{"sequences": {"note": "The chains behind the UniProt entries cited, without tags or fusion partners.", "UniProt Q96BT3": "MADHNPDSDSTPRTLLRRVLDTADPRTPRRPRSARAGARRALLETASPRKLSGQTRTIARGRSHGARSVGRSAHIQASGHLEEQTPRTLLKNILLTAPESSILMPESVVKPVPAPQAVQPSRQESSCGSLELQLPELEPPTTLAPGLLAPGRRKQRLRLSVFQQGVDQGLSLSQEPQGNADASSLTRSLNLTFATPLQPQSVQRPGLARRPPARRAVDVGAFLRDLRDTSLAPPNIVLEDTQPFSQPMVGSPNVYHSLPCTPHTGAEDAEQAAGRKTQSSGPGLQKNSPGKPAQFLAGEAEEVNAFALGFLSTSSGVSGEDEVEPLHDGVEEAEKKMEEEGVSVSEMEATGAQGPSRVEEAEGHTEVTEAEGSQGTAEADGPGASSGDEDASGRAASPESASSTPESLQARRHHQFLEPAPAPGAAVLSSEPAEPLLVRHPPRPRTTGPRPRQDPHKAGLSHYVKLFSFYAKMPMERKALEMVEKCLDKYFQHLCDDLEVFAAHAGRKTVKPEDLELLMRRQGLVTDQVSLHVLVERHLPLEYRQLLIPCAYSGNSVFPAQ"}, "source": "paper PMC3114758", "target": "CENP-T tagged with a fluorescent protein (human) (UniProt Q96BT3)", "experiment": "FRET or BRET; FRET between CENP-T and CENP-W constructs tagged with fluorescent proteins, in human cells; unpublished observations", "note": "Results are given in words; binding and its absence hold for the method and conditions named. Binding seen in cells or lysates may run through a third protein. Some entries that bind do so weakly or less than the wild type."}
{"substance": "CENP-W tagged with a fluorescent protein (from UniProt Q5EE01-1 1-88)", "values": [{"measurement": "binding", "result": "binds"}]}
